Data reported in US20100150924A1 (published 2010).
These are yes or no findings as the source states them, for the method shown. Some binding calls cover weakened binding; strength is not graded here. Tags and fused reporters may be left off the sequences shown.

Columns and labels:
[1] = target: T1, Necl4-FL (myc-tagged full length Necl4, pMX-SSmyc-Necl4FL) on infected 3T3 cells (mouse/rat (chimeric)); assay: Fc-fusion binding to infected 3T3 fibroblasts
T1 sequence: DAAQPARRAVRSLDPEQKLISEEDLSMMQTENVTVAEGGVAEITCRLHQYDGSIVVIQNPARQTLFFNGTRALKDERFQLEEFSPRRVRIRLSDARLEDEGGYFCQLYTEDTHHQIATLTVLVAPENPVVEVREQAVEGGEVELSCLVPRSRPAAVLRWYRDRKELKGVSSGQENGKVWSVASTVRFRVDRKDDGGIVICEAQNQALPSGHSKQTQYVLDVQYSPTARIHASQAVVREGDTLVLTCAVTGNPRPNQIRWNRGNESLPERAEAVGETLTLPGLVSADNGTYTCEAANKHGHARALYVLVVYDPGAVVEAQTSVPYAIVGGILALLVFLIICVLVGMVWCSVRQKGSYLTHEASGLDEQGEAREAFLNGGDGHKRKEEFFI

[2] = target: T2, Necl4-dCT (myc-tagged Necl4 lacking the entire cytoplasmic domain, pMX-SSmyc-Necl4dCT) on infected 3T3 cells (mouse/rat (chimeric)); assay: Fc-fusion binding to infected 3T3 fibroblasts
T2 sequence: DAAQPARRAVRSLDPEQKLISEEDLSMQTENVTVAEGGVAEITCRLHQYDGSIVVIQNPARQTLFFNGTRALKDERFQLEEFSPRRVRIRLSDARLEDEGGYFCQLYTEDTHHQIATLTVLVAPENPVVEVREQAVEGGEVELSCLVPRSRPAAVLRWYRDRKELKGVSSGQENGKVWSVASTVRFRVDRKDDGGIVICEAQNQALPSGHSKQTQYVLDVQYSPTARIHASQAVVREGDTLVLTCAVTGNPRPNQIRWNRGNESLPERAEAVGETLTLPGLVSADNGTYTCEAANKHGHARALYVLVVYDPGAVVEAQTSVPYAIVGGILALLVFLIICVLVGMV

[3] = target: T1, Necl4-FL (myc-tagged full length Necl4, pMX-SSmyc-Necl4FL) on infected 3T3 cells (mouse/rat (chimeric)); assay: Fc-fusion binding to non-permeabilized infected 3T3 cells
[4] = target: T2, Necl4-dCT (myc-tagged Necl4 lacking the entire cytoplasmic domain, pMX-SSmyc-Necl4dCT) on infected 3T3 cells (mouse/rat (chimeric)); assay: as above
[5] = target: T3, endogenous rat Necl4 (on cultured rat Schwann cells; also in rat brain membranes and sciatic nerve) (rat) (UniProt Q1WIM1); assay: clustering of bound Fc-fusion on rat Schwann cells, then immunostaining
T3 sequence (looked up): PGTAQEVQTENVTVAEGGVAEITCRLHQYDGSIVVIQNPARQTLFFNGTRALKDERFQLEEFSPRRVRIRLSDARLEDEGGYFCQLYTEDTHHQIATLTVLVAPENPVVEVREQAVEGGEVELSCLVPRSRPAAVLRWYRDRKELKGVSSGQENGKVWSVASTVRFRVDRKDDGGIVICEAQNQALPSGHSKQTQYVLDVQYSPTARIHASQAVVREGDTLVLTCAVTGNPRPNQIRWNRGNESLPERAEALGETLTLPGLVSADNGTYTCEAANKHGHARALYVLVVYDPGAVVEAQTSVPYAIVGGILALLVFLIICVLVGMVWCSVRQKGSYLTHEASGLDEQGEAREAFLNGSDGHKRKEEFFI

[6] = target: T3, endogenous rat Necl4 (on cultured rat Schwann cells; also in rat brain membranes and sciatic nerve) (rat); assay: Fc-fusion binding to rat Schwann cells after Necl4 siRNA or control siRNA
[7] = target: T3, endogenous rat Necl4 (on cultured rat Schwann cells; also in rat brain membranes and sciatic nerve) (rat); assay: Fc-fusion binding to rat Schwann cells after Necl4 siRNA or control siRNA; aggregated Necl1-Fc also co-clustered Necl4

Measured: binding

B1: Necl1-Fc (extracellular domain of Necl1 fused to the constant region of human IgG1) (Fc fusion)
chain: NLSQDGYWQEQDLELGTPAPLEEALSSTVWSNPDLLASQDSQPWTSDETVVAGGTVVLKCQVKDHEDSSLQWSNPAQQTLYFGEKRALRDNRIQLVSSTPHELSISISNVALADEGEYTCSIFTMPVRTAKSLVTVLGIPQKPIITGYKSSLREKETATLNCQSSGSKPAAQLAWRKGDQELHGDQTRIQEDPNGKTFTVSSSVSFQVTRDDDGANVVCSVNHESLKGADRSTSQRIEVLYTPTAMIRPEPAHPREGQKLLLHCEGRGNPVPQQYVWVKEGSEPPLKMTQESALIFPFLNKSDSGTYGCTATSNMGSYTAYFTLNVNDPSPVPSSSST
notes: Produced in HEK 293T cells; also called soluble Necl1; Nel1-Fc; not shown: constant region (Fc) of human IgG1
binds: all assays above
